Some entries share one result that the patent states for a list of compounds.
Key:
Assay type in all cases: cell-based
Conditions in all cases: at 31 ppm, 405 nm, 7 days after inoculation, control = 100%
Leptosphaeria nodorum = assay: Microtest: activity against wheat leaf spots caused by Leptosphaeria nodorum (Leptno)
Alternaria solani = assay: Microtest: activity against early blight caused by Alternaria solani (Alteso)
Botrytis cinerea = assay: Microtiterplate test: activity against the grey mold Botrytis cinerea (Botrci), also comparison test CM1
Septoria tritici = assay: Microtest: activity against leaf blotch on wheat caused by Septoria tritici (Septtr), also comparison test CM3
Pyricularia oryzae = tested on: Pyricularia oryzae

For `OC1(c2ccc(Oc3ccc(Cl)cc3)cc2Cl)CCCC1n1cncn1` (centres unmarked) [Compound I-1], the “growth (relative growth in % of the pathogen)” value (from here on “relative growth in %”) (Leptosphaeria nodorum) was ≤ 8%, the “relative growth in %” value (Alternaria solani) was ≤ 17% and the “relative growth in %” value (Botrytis cinerea) was ≤ 12%. For the same molecule, the “relative growth in %” value (Septoria tritici) was ≤ 16% and the “relative growth in %” value (Pyricularia oryzae) was ≤ 15%.

For `OC1(c2ccc(-c3ccccc3)cc2)CCCC1n1cncn1` (centres unmarked) [Compound I-2], the “relative growth in %” value (Septoria tritici) was ≤ 16%.

`OC1(c2ccc(-c3ccc(Cl)cc3)cc2)CCCC1n1cncn1` (centres unmarked) [Compound I-3] was tested, and the “relative growth in %” value (Septoria tritici) was ≤ 16%.

`OC1(c2ccc(-c3ccc(F)cc3)cc2)CCCC1n1cncn1` (centres unmarked) [Compound I-4] was tested, and the “relative growth in %” value (Septoria tritici) was ≤ 16%.

`OC1(c2ccc(-c3ccc(Cl)cc3Cl)cc2)CCCC1n1cncn1` (centres unmarked) [Compound I-5] was tested, and the “relative growth in %” value (Septoria tritici) was ≤ 16%.

With `OC1(c2cccc(-c3ccc(Cl)cc3)c2)CCCC1n1cncn1` (centres unmarked) [Compound I-7] the “relative growth in %” value (Septoria tritici) was ≤ 16%.

For `OC1(c2cccc(-c3ccc(F)cc3)c2)CCCC1n1cncn1` (centres unmarked) [Compound I-8], the “relative growth in %” value (Septoria tritici) was ≤ 16%.

For `OC1(c2cccc(-c3ccc(Cl)cc3Cl)c2)CCCC1n1cncn1` (centres unmarked) [Compound I-9], the “relative growth in %” value (Septoria tritici) was ≤ 16%.

In the case of `OC1(c2ccc(Oc3ccc(Cl)cc3)cc2Cl)CCCCC1n1cncn1` (centres unmarked) [Compound I-10], the “relative growth in %” value (Leptosphaeria nodorum) is reported as ≤ 8%, the “relative growth in %” value (Alternaria solani) is reported as ≤ 17% and the “relative growth in %” value (Botrytis cinerea) is reported as ≤ 12%. The “relative growth in %” value (Septoria tritici) was ≤ 16% and the “relative growth in %” value (Pyricularia oryzae) was ≤ 15%.

`OC1(c2ccc(Oc3ccc(Cl)cc3)cc2)CCCCC1n1cncn1` (centres unmarked) [Compound I-11, 1-[4-(4-chlorophenoxyl)phenyl]-2-(1,2,4-triazol-1-yl)cyclohexanol] was tested, and the “relative growth in %” value (Pyricularia oryzae) was ≤ 15%.

With `OC1(c2ccc(-c3ccccc3)cc2)CCCCC1n1cncn1` (centres unmarked) [Compound I-12] the “relative growth in %” value (Pyricularia oryzae) was ≤ 15%.

For `OC1(c2ccc(-c3ccc(F)cc3)cc2)CCCCC1n1cncn1` (centres unmarked) [Compound I-13], the “relative growth in %” value (Leptosphaeria nodorum) was ≤ 8%, the “relative growth in %” value (Alternaria solani) was ≤ 17% and the “relative growth in %” value (Botrytis cinerea) was ≤ 12%. The “relative growth in %” value (Septoria tritici) was ≤ 16%.

With `OC1(c2ccc(Oc3ccc(F)cc3)cc2Cl)CCCCC1n1cncn1` (centres unmarked) [Compound I-14] the “relative growth in %” value (Leptosphaeria nodorum) was ≤ 8%, the “relative growth in %” value (Alternaria solani) was ≤ 17% and the “relative growth in %” value (Botrytis cinerea) was ≤ 12%. For the same molecule, the “relative growth in %” value (Septoria tritici) was ≤ 16% and the “relative growth in %” value (Pyricularia oryzae) was ≤ 15%.

With `OC1(c2ccc(-c3ccc(Cl)cc3)cc2)CCCCC1n1cncn1` (centres unmarked) [Compound I-15] the “relative growth in %” value (Pyricularia oryzae) was ≤ 15%.

In the case of `OC1(c2ccc(-c3ccc(Cl)cc3Cl)cc2)CCCCC1n1cncn1` (centres unmarked) [Compound I-16], the “relative growth in %” value (Leptosphaeria nodorum) is reported as ≤ 8%, the “relative growth in %” value (Alternaria solani) is reported as ≤ 17% and the “relative growth in %” value (Botrytis cinerea) is reported as ≤ 12%. For the same molecule, the “relative growth in %” value (Septoria tritici) was ≤ 16% and the “relative growth in %” value (Pyricularia oryzae) was ≤ 15%.

`OC1(c2ccc(Oc3ccc(Cl)cc3Cl)cc2Cl)CCCCC1n1cncn1` (centres unmarked) [Compound I-17] was tested, and the “relative growth in %” value (Leptosphaeria nodorum) was ≤ 8%, the “relative growth in %” value (Alternaria solani) was ≤ 17% and the “relative growth in %” value (Botrytis cinerea) was ≤ 12%. For the same molecule, the “relative growth in %” value (Septoria tritici) was ≤ 16% and the “relative growth in %” value (Pyricularia oryzae) was ≤ 15%.

In the case of `OC1(c2cccc(-c3ccccc3)c2)CCCCC1n1cncn1` (centres unmarked) [Compound I-18], the “relative growth in %” value (Leptosphaeria nodorum) is reported as ≤ 8%, the “relative growth in %” value (Alternaria solani) is reported as ≤ 17% and the “relative growth in %” value (Botrytis cinerea) is reported as ≤ 12%. For the same molecule, the “relative growth in %” value (Septoria tritici) was ≤ 16% and the “relative growth in %” value (Pyricularia oryzae) was ≤ 15%.

For `OC1(c2cccc(-c3ccc(Cl)cc3)c2)CCCCC1n1cncn1` (centres unmarked) [Compound I-19], the “relative growth in %” value (Pyricularia oryzae) was ≤ 15%.

In the case of `OC1(c2cccc(-c3ccc(F)cc3)c2)CCCCC1n1cncn1` (centres unmarked) [Compound I-20], the “relative growth in %” value (Leptosphaeria nodorum) is reported as ≤ 8%, the “relative growth in %” value (Alternaria solani) is reported as ≤ 17% and the “relative growth in %” value (Botrytis cinerea) is reported as ≤ 12%. The “relative growth in %” value (Septoria tritici) was ≤ 16% and the “relative growth in %” value (Pyricularia oryzae) was ≤ 15%.

With `OC1(c2cccc(-c3ccc(Cl)cc3Cl)c2)CCCCC1n1cncn1` (centres unmarked) [Compound I-21] the “relative growth in %” value (Leptosphaeria nodorum) was ≤ 8%, the “relative growth in %” value (Alternaria solani) was ≤ 17% and the “relative growth in %” value (Botrytis cinerea) was ≤ 12%. For the same molecule, the “relative growth in %” value (Septoria tritici) was ≤ 16% and the “relative growth in %” value (Pyricularia oryzae) was ≤ 15%.

For `OC1(c2ccc(C#Cc3ccc(Cl)cc3)cc2)CCCCC1n1cncn1` (centres unmarked) [Compound I-22], the “relative growth in %” value (Alternaria solani) was ≤ 17%, the “relative growth in %” value (Botrytis cinerea) was ≤ 12% and the “relative growth in %” value (Septoria tritici) was ≤ 16%.

With `OC1(c2ccc(C#Cc3ccc(F)cc3)cc2)CCCCC1n1cncn1` (centres unmarked) [Compound I-23, 1-[4-[2-(4-fluorophenyl)ethynyl]phenyl]-2-(1,2,4-triazol-1-yl)cyclohexanol] the “relative growth in %” value (Pyricularia oryzae) was ≤ 15%.

For `OC1(c2ccc(C#Cc3ccccc3)cc2)CCCCC1n1cncn1` (centres unmarked) [Compound I-24], the “relative growth in %” value (Leptosphaeria nodorum) was ≤ 8%, the “relative growth in %” value (Alternaria solani) was ≤ 17% and the “relative growth in %” value (Botrytis cinerea) was ≤ 12%. The “relative growth in %” value (Septoria tritici) was ≤ 16% and the “relative growth in %” value (Pyricularia oryzae) was ≤ 15%.

With `OC1(c2cccc(C#Cc3ccccc3)c2)CCCCC1n1cncn1` (centres unmarked) [Compound I-25] the “relative growth in %” value (Alternaria solani) was ≤ 17%, the “relative growth in %” value (Botrytis cinerea) was ≤ 12% and the “relative growth in %” value (Septoria tritici) was ≤ 16%.

`OC1(c2cccc(C#Cc3ccc(Cl)cc3)c2)CCCCC1n1cncn1` (centres unmarked) [Compound I-26] was tested, and the “relative growth in %” value (Alternaria solani) was ≤ 17%, the “relative growth in %” value (Botrytis cinerea) was ≤ 12% and the “relative growth in %” value (Septoria tritici) was ≤ 16%.

For `OC1(c2cccc(C#Cc3ccc(F)cc3)c2)CCCCC1n1cncn1` (centres unmarked) [Compound I-27], the “relative growth in %” value (Alternaria solani) was ≤ 17%, the “relative growth in %” value (Botrytis cinerea) was ≤ 12% and the “relative growth in %” value (Septoria tritici) was ≤ 16%.

In the case of `OC1(c2cc(Oc3ccc(Cl)cc3)ccc2Cl)CCCCC1n1cncn1` (centres unmarked) [Compound I-28], the “relative growth in %” value (Alternaria solani) is reported as ≤ 17% and the “relative growth in %” value (Botrytis cinerea) is reported as ≤ 12%.

With `OC1(c2cccc(Oc3ccc(Cl)cc3)c2)CCCCC1n1cncn1` (centres unmarked) [Compound I-30] the “relative growth in %” value (Alternaria solani) was ≤ 17%, the “relative growth in %” value (Botrytis cinerea) was ≤ 12% and the “relative growth in %” value (Septoria tritici) was ≤ 16%.

In the case of `OC1(c2ccc(Oc3ccc(F)cc3)cc2)CCCCC1n1cncn1` (centres unmarked) [Compound I-31], the “relative growth in %” value (Alternaria solani) is reported as ≤ 17%, the “relative growth in %” value (Botrytis cinerea) is reported as ≤ 12% and the “relative growth in %” value (Septoria tritici) is reported as ≤ 16%.

With `COC1(c2ccc(Oc3ccc(F)cc3)cc2)CCCCC1n1cncn1` (centres unmarked) [Compound I-32] the “relative growth in %” value (Alternaria solani) was ≤ 17%, the “relative growth in %” value (Botrytis cinerea) was ≤ 12% and the “relative growth in %” value (Septoria tritici) was ≤ 16%.

With `OC1(c2ccc(Oc3ccc(Cl)cc3)cc2Cl)CCCCCC1n1cncn1` (centres unmarked) [Compound I-33, 1-[2-chloro-4-(4-chlorophenoxyl)phenyl]-2-(1,2,4-triazol-1-yl)cycloheptanol] the “relative growth in %” value (Pyricularia oryzae) was ≤ 15%.

In the case of `OC1(c2cccc(-c3ccccc3)c2)CCCCCC1n1cncn1` (centres unmarked) [Compound I-34, 1-(3-phenylphenyl)-2-(1,2,4-triazol-1-yl)cycloheptanol], the “relative growth in %” value (Pyricularia oryzae) is reported as ≤ 15%.

In the case of `OC1(c2cccc(-c3ccc(Cl)cc3)c2)CCCCCC1n1cncn1` (centres unmarked) [Compound I-35], the “relative growth in %” value (Botrytis cinerea) is reported as ≤ 12%, the “relative growth in %” value (Septoria tritici) is reported as ≤ 16% and the “relative growth in %” value (Pyricularia oryzae) is reported as ≤ 15%.

With `OC1(c2cccc(-c3ccc(F)cc3)c2)CCCCCC1n1cncn1` (centres unmarked) [Compound I-36] the “relative growth in %” value (Botrytis cinerea) was ≤ 12%, the “relative growth in %” value (Septoria tritici) was ≤ 16% and the “relative growth in %” value (Pyricularia oryzae) was ≤ 15%.

With `OC1(c2cccc(-c3ccc(Cl)cc3Cl)c2)CCCCCC1n1cncn1` (centres unmarked) [Compound I-37] the “relative growth in %” value (Septoria tritici) was ≤ 16% and the “relative growth in %” value (Pyricularia oryzae) was ≤ 15%.

With `OC1(c2ccc(-c3ccccc3)cc2)CCCCCC1n1cncn1` (centres unmarked) [Compound I-38] the “relative growth in %” value (Leptosphaeria nodorum) was ≤ 8%, the “relative growth in %” value (Alternaria solani) was ≤ 17% and the “relative growth in %” value (Botrytis cinerea) was ≤ 12%. The “relative growth in %” value (Septoria tritici) was ≤ 16% and the “relative growth in %” value (Pyricularia oryzae) was ≤ 15%.

`OC1(c2ccc(-c3ccc(Cl)cc3)cc2)CCCCCC1n1cncn1` (centres unmarked) [Compound I-39] was tested, and the “relative growth in %” value (Leptosphaeria nodorum) was ≤ 8%, the “relative growth in %” value (Alternaria solani) was ≤ 17% and the “relative growth in %” value (Septoria tritici) was ≤ 16%. For the same molecule, the “relative growth in %” value (Pyricularia oryzae) was ≤ 15%.

In the case of `OC1(c2ccc(-c3ccc(F)cc3)cc2)CCCCCC1n1cncn1` (centres unmarked) [Compound I-40], the “relative growth in %” value (Leptosphaeria nodorum) is reported as ≤ 8%, the “relative growth in %” value (Alternaria solani) is reported as ≤ 17% and the “relative growth in %” value (Botrytis cinerea) is reported as ≤ 12%. For the same molecule, the “relative growth in %” value (Septoria tritici) was ≤ 16% and the “relative growth in %” value (Pyricularia oryzae) was ≤ 15%.

With `OC1(c2ccc(-c3ccc(Cl)cc3Cl)cc2)CCCCCC1n1cncn1` (centres unmarked) [Compound I-41] the “relative growth in %” value (Septoria tritici) was ≤ 16% and the “relative growth in %” value (Pyricularia oryzae) was ≤ 15%.
